Measurements published in the supplement of paper PMC8728848.
Some of the results follow.

Columns and labels:
Test in all cases: glycan array binding signal (z-score within array); higher = stronger binding
Conditions in all cases: glycan notation: IUPAC condensed, linker removed
[1] = molecular target: Fuc(a1-2)Gal(b1-4)GlcNAc(b1-3)Gal(b1-4)GlcNAc(b1-3)Gal(b1-4)GlcNAc
Procedure, shortened: (§1)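 The binding signal is a Z-score computed within each array. Data were drawn from 3228 arrays in the Consortium for Functional Glycomics database, restricted to those with a known protein sequence. Scores were averaged over arrays of the same protein sequence at different concentrations or buffers, and over linkers, and negative values can be taken as non-binding.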

[2] = molecular target: Fuc(a1-2)Gal(b1-4)GlcNAc(b1-3)GalNAc
Procedure, shortened: as §1

[3] = molecular target: Fuc(a1-2)Gal(b1-4)GlcNAc(b1-3)[Fuc(a1-2)Gal(b1-4)GlcNAc(b1-6)]GalNAc
Procedure, shortened: as §1

[4] = molecular target: Fuc(a1-2)Gal(b1-4)GlcNAc(b1-3)[Fuc(a1-3)[Gal(b1-4)]GlcNAc(b1-6)]Gal(b1-4)Glc
Procedure, shortened: as §1

[5] = molecular target: Fuc(a1-2)Gal(b1-4)GlcNAc(b1-6)GalNAc
Procedure, shortened: as §1

[6] = molecular target: Fuc(a1-2)Gal(b1-4)GlcNAc6S
Procedure, shortened: as §1

[7] = molecular target: Fuc(a1-2)Gal(b1-4)[Fuc(a1-3)]GlcNAc
Procedure, shortened: as §1

[8] = molecular target: Fuc(a1-2)Gal(b1-4)[Fuc(a1-3)]GlcNAc(b1-2)Man(a1-3)[Fuc(a1-2)Gal(b1-4)[Fuc(a1-3)]GlcNAc(b1-2)Man(a1-6)]Man(b1-4)GlcNAc(b1-4)[Fuc(a1-6)]GlcNAc
Procedure, shortened: as §1

[9] = molecular target: Fuc(a1-2)Gal(b1-4)[Fuc(a1-3)]GlcNAc(b1-2)[Fuc(a1-2)Gal(b1-4)[Fuc(a1-3)]GlcNAc(b1-4)]Man(a1-3)[Fuc(a1-2)Gal(b1-4)[Fuc(a1-3)]GlcNAc(b1-2)Man(a1-6)]Man(b1-4)GlcNAc(b1-4)GlcNAc
Procedure, shortened: as §1

[10] = molecular target: Fuc(a1-2)Gal(b1-4)[Fuc(a1-3)]GlcNAc(b1-3)Gal(b1-4)[Fuc(a1-3)]GlcNAc
Procedure, shortened: as §1

[11] = molecular target: Fuc(a1-2)Gal(b1-4)[Fuc(a1-3)]GlcNAc(b1-3)Gal(b1-4)[Fuc(a1-3)]GlcNAc(b1-3)Gal(b1-4)[Fuc(a1-3)]GlcNAc
Procedure, shortened: as §1

[12] = molecular target: Fuc(a1-2)Gal(b1-4)[Fuc(a1-3)]GlcNAc(b1-3)GalNAc
Procedure, shortened: as §1

[13] = molecular target: Fuc(a1-2)Gal(b1-4)[Fuc(a1-3)]GlcNAc(b1-3)[Neu5Ac(a2-6)Gal(b1-4)GlcNAc(b1-6)]Gal(b1-4)Glc
Procedure, shortened: as §1

[14] = molecular target: Fuc(a1-2)Gal3S(b1-4)GlcNAc
Procedure, shortened: as §1

[15] = molecular target: Fuc(a1-2)Gal6S(b1-3)GlcNAc
Procedure, shortened: as §1

[16] = molecular target: Fuc(a1-2)Gal6S(b1-3)GlcNAc6S
Procedure, shortened: as §1

[17] = molecular target: Fuc(a1-2)Gal6S(b1-4)Glc
Procedure, shortened: as §1

[18] = molecular target: Fuc(a1-2)Gal6S(b1-4)Glc6S
Procedure, shortened: as §1

[19] = molecular target: Fuc(a1-2)[Gal(a1-3)]Gal
Procedure, shortened: as §1

[20] = molecular target: Fuc(a1-2)[Gal(a1-3)]Gal(b1-3)GalNAc
Procedure, shortened: as §1

[21] = molecular target: Fuc(a1-2)[Gal(a1-3)]Gal(b1-3)GalNAc(b1-3)Gal(a1-4)Gal(b1-4)Glc
Procedure, shortened: as §1

[22] = molecular target: Fuc(a1-2)[Gal(a1-3)]Gal(b1-3)GlcNAc
Procedure, shortened: as §1

[23] = molecular target: Fuc(a1-2)[Gal(a1-3)]Gal(b1-3)GlcNAc(b1-2)Man(a1-3)[Fuc(a1-2)[Gal(a1-3)]Gal(b1-3)GlcNAc(b1-2)Man(a1-6)]Man(b1-4)GlcNAc(b1-4)GlcNAc
Procedure, shortened: as §1

[24] = molecular target: Fuc(a1-2)[Gal(a1-3)]Gal(b1-3)GlcNAc(b1-2)Man(a1-3)[Fuc(a1-2)[Gal(a1-3)]Gal(b1-3)GlcNAc(b1-2)Man(a1-6)]Man(b1-4)GlcNAc(b1-4)[Fuc(a1-6)]GlcNAc
Procedure, shortened: as §1

[25] = molecular target: Fuc(a1-2)[Gal(a1-3)]Gal(b1-3)GlcNAc(b1-3)GalNAc
Procedure, shortened: as §1

[26] = molecular target: Fuc(a1-2)[Gal(a1-3)]Gal(b1-3)GlcNAc(b1-6)GalNAc
Procedure, shortened: as §1

[27] = molecular target: Fuc(a1-2)[Gal(a1-3)]Gal(b1-4)Glc
Procedure, shortened: as §1

[28] = molecular target: Fuc(a1-2)[Gal(a1-3)]Gal(b1-4)GlcNAc
Procedure, shortened: as §1

[29] = molecular target: Fuc(a1-2)[Gal(a1-3)]Gal(b1-4)GlcNAc(b1-2)Man
Procedure, shortened: as §1

[30] = molecular target: Fuc(a1-2)[Gal(a1-3)]Gal(b1-4)GlcNAc(b1-2)Man(a1-3)[Fuc(a1-2)[Gal(a1-3)]Gal(b1-4)GlcNAc(b1-2)Man(a1-6)]Man(b1-4)GlcNAc(b1-4)GlcNAc
Procedure, shortened: as §1

B1: Clec18A (Homo sapiens) (protein)
chain: PFHTCDLRIDGDCFMVSSEADTYYRARMKCQRKGGVLAQIKRQKVQDILAFYLGRLETTNEVIDSDFETRNFWIGLTYKTAKDSFRWATGEHQAFTSFAFGQPDNHGFGNCVELQASAAFNWNDQRCKTRNRYICQ
- glycan array binding signal (z-score) [1]: -0.291
- glycan array binding signal (z-score) [2]: -0.366
- glycan array binding signal (z-score) [3]: -0.545
- glycan array binding signal (z-score) [4]: 0.032
- glycan array binding signal (z-score) [5]: 0.652
- glycan array binding signal (z-score) [6]: -0.39
- glycan array binding signal (z-score) [7]: -0.32
- glycan array binding signal (z-score) [8]: -0.722
- glycan array binding signal (z-score) [9]: -0.584
- glycan array binding signal (z-score) [10]: 1.43
- glycan array binding signal (z-score) [11]: -0.469
- glycan array binding signal (z-score) [12]: -0.67
- glycan array binding signal (z-score) [13]: 0.601
- glycan array binding signal (z-score) [14]: 0.16
- glycan array binding signal (z-score) [15]: -0.357
- glycan array binding signal (z-score) [16]: 0.484
- glycan array binding signal (z-score) [17]: -0.552
- glycan array binding signal (z-score) [18]: 0.108
- glycan array binding signal (z-score) [19]: -0.524
- glycan array binding signal (z-score) [20]: 0.101
- glycan array binding signal (z-score) [21]: -0.648
- glycan array binding signal (z-score) [22]: -0.796
- glycan array binding signal (z-score) [23]: -0.382
- glycan array binding signal (z-score) [24]: 0.408
- glycan array binding signal (z-score) [25]: -0.397
- glycan array binding signal (z-score) [26]: 1.74
- glycan array binding signal (z-score) [27]: -0.703
- glycan array binding signal (z-score) [28]: -0.589
- glycan array binding signal (z-score) [29]: -0.778
- glycan array binding signal (z-score) [30]: -0.014
